Positions count from the first letter of the chain named. Numbers in names are those of the source.
B1: TGLLK: Tgo: V93Q, D141A, E143A, Y409G, A485L, I521L, F545L, E664K; previously described parent polymerase (protein, UniProt P56689 1-773, looked up, variant V93Q D141A E143A Y409G A485L I521L F545L E664K)
DNA polymerase: MILDTDYITEDGKPVIRIFKKENGEFKIDYDRNFEPYIYALLKDDSAIEDVKKITAERHGTTVRVVRAEKVKKKFLGRPIEVWKLYFTHPQDQPAIRDKIKEHPAVVDIYEYDIPFAKRYLIDKGLIPMEGDEELKMLAFAIATLYHEGEEFAEGPILMISYADEEGARVITWKNIDLPYVDVVSTEKEMIKRFLKVVKEKDPDVLITYNGDNFDFAYLKKRSEKLGVKFILGREGSEPKIQRMGDRFAVEVKGRIHFDLYPVIRRTINLPTYTLEAVYEAIFGQPKEKVYAEEIAQAWETGEGLERVARYSMEDAKVTYELGKEFFPMEAQLSRLVGQSLWDVSRSSTGNLVEWFLLRKAYERNELAPNKPDERELARRRESYAGGYVKEPERGLWENIVYLDFRSLGPSIIITHNVSPDTLNREGCEEYDVAPQVGHKFCKDFPGFIPSLLGDLLEERQKVKKKMKATIDPIEKKLLDYRQRLIKILANSFYGYYGYAKARWYCKECAESVTAWGRQYLETTIREIEEKFGFKVLYADTDGFLATIPGADAETVKKKAKEFLDYINAKLPGLLELEYEGFYKRGFFVTKKKYAVIDEEDKITTRGLEIVRRDWSEIAKETQARVLEAILKHGDVEEAVRIVKEVTEKLSKYEVPPEKLVIYKQITRDLKDYKATGPHVAVAKRLAARGIKIRPGTVISYIVLKGSGRIGDRAIPFDEFDPAKHKYDAEYYIENQVLPAVERILRAFGYRKEDLRYQKTRQVGLGAWLKPKT
B2: 2M: Tgo polymerase with V93Q, D141A, E143A, Y409G, A485L, I521L, T541G, F545L, K592A, E664K (SEQ ID NO: 3) (protein)
chain: B1 DNA polymerase with T541G, K592A
B3: 3M: Tgo polymerase as 2M but with E664R (SEQ ID NO: 4) (protein)
chain: B1 DNA polymerase with T541G, K592A, K664R

test: Fidelity of 2′OMe-RNA synthesis by barcoded NGS; type: biochemical; conditions: 2′OMe synthesis and RT by SSIII

Molecule	substitutions 2′OMeA −> C [per 10^6 bases]	substitutions 2′OMeA −> G [per 10^6 bases]	substitutions 2′OMeA −> T [per 10^6 bases]	substitutions 2′OMeC −> A [per 10^6 bases]	substitutions 2′OMeC −> G [per 10^6 bases]	substitutions 2′OMeC −> T [per 10^6 bases]	substitutions 2′OMeG −> A [per 10^6 bases]	substitutions 2′OMeG −> C [per 10^6 bases]	substitutions 2′OMeG −> T [per 10^6 bases]	substitutions 2′OMeU −> A [per 10^6 bases]
B1	609	10	9	24	1	64	184	224	216	40
B2	425	5	5	5	0	23	44	16	16	7
B3	67	120	55	88	34	188	179	58	212	6

same assay, conditions: 2′OMe synthesis and RT by SSIII

Molecule	substitutions 2′OMeU −> C [per 10^6 bases]	substitutions 2′OMeU −> G [per 10^6 bases]
B1	76	1
B2	44	0
B3	222	1

same assay, conditions: 2′OMe-RNA synthesis

Molecule	Mean error rate
B1	1.5 +/− 0.5 ×10^−3
B2	0.65 +/− 0.3 ×10^−3
B3	1.3 +/− 0.6 ×10^−3

same assay, conditions: 2′OMe-RNA synthesis, RT by SSIII

Molecule	Experiment 1: error rate	Experiment 2: error rate	Experiment 3: error rate	Experiment 4: error rate
B1	1.61 × 10^−3	6.87 × 10^−4	1.93 × 10^−3	1.65 × 10^−3
B2	8.17 × 10^−4	4.99 × 10^−4	1.00 × 10^−3	2.63 × 10^−4
B3	1.35 × 10^−3	1.77 × 10^−3	9.67 × 10^−4	1.20 × 10^−3

Reference: patent US20250197820A1, “NUCLEIC ACID POLYMERASE AND ITS USE IN PRODUCING NON-DNA NUCLEOTIDE POLYMERS” (UNITED KINGDOM RESEARCH AND INNOVATION, priority 2021, published 2025)
